The IC50 is the midpoint of a concentration-inhibition curve. High values mean lower potency, low ones higher potency.

One series concerns PSF / p54nrb heterodimer. Description: competition with a labelled probe. The settings on record: full PS, disruption of PSF-p54nrb BRET in HeLa lysate, reported as KD (50% dissociation), protein in a lysate after overexpression.
Series [1] addresses T1, FUS(1-526)[P525L]-NLUC-FLAG (UniProt P35637).
T1 sequence (looked up): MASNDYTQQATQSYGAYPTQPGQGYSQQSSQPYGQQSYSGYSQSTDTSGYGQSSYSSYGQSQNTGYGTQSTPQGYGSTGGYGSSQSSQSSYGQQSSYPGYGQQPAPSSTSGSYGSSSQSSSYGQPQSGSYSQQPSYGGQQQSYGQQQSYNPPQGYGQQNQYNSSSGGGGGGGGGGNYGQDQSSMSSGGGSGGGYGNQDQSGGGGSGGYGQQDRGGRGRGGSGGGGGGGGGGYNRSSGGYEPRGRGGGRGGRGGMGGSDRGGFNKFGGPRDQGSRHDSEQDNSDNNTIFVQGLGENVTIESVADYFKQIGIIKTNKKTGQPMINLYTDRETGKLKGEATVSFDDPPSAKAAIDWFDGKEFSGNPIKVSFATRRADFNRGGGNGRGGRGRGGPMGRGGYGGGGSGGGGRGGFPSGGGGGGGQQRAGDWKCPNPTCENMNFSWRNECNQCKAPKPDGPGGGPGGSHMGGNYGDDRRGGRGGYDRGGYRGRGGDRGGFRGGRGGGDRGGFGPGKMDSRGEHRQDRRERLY
In words: competition with a labelled probe. The following applies: competitive nanoBRET vs AF594-JB39; reported as KD (50% dissociation of BRET pair); text NLUC-FLAG; protein translated in vitro; protein details: C-terminal NLUC-FLAG, PURExpress, bead-bound; single-stranded DNA. In general terms: BRET reads energy transfer from a luciferase to a nearby fluorophore.

For some of these results: Where a protein sequence is shown, tags need not be part of it. For some of these results: For at least one entry, the source does not settle the construct or the ends of the probe. For some of these results: At least one result comes from cells or an extract, where the contact may be indirect.

In the case of “CTGCTAGCCTCTGGATTTGA [116847 (2'-MOE 5-10-5 gapmer)]”, the IC50 in the series on PSF / p54nrb heterodimer (2'-MOE at 1-5 and 16-20, DNA at 6-15, all C 5mC) came out at 2.46 nM.

Sequence “CTGCTAGCCTCTGGATTTGA [582801 (cEt 5-10-5 gapmer)]” gave an IC50 in the series on PSF / p54nrb heterodimer (cEt at 1-5 and 16-20, DNA at 6-15, all C 5mC) of 5.12 nM.

Regarding “CTGCTAGCCTCTGGATTTGA [JB40 (DNA, phosphodiester)]”, in series [1], the IC50 is over 1000 nM.

Sequence “CUGCUAGCCTCTGGAUUUGA [404130 (2'-F 5-10-5 gapmer)]” had an IC50 in the series on PSF / p54nrb heterodimer (2'-F at 1-5 and 16-20, DNA at 6-15, 5mC at C8, C9, C11) of 0.66 nM.

Source of the values: patent publication US20200239888.
